This note sets out measurements from doi:10.1101/740472.

Results are given in words; binding and its absence hold for the method and conditions named. In cells and extracts the contact can be indirect. Here binding means that the protein was enriched with, or labelled near, the bait; the list need not be complete. Where a sequence is shown, tags or fusion partners need not be part of it.

The target in this test is T1, HA-tagged human ISLR (hISLR-HA) (human) (UniProt O14498).
T1 sequence: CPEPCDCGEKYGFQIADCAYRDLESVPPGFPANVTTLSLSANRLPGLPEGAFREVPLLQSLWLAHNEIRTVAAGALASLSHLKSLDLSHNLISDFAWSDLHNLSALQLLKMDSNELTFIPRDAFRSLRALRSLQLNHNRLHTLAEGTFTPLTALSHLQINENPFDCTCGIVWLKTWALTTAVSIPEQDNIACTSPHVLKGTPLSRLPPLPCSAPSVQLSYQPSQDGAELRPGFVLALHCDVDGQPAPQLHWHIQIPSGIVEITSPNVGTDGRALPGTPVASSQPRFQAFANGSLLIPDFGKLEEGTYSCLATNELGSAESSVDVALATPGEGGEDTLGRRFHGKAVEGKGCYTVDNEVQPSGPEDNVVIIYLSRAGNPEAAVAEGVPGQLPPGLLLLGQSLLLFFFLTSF
Kind of test: affinity purification with mass spectrometry.

As to ATP1B3 (from UniProt P54709 1-279), the binding entry is given as “binds”.
